# Measurements as given in the supplement of paper PMC12823440, “Inhibitors supercharge kinase turnover through native proteolytic circuits” (Nature, 2025).
# The chains behind the UniProt entries cited, without tags or fusion partners. Where a name states a change or a piece, a line headed by the entry shows the natural chain unless it says otherwise.
# UniProt Q9BRS2: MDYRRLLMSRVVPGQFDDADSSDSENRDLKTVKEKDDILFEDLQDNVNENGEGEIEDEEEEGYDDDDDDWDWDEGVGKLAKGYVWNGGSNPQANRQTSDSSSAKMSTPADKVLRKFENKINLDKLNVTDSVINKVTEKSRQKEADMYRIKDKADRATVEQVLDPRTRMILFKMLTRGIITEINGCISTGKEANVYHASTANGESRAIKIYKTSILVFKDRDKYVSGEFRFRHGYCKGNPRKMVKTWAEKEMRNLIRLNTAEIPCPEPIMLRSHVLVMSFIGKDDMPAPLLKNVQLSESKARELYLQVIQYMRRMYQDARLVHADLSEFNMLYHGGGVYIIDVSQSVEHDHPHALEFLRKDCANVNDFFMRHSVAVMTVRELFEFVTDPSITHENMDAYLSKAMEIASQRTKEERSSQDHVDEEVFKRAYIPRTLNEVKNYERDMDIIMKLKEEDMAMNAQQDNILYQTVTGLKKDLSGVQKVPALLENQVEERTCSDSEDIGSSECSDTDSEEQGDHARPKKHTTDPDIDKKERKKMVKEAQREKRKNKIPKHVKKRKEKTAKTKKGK
# UniProt Q13546: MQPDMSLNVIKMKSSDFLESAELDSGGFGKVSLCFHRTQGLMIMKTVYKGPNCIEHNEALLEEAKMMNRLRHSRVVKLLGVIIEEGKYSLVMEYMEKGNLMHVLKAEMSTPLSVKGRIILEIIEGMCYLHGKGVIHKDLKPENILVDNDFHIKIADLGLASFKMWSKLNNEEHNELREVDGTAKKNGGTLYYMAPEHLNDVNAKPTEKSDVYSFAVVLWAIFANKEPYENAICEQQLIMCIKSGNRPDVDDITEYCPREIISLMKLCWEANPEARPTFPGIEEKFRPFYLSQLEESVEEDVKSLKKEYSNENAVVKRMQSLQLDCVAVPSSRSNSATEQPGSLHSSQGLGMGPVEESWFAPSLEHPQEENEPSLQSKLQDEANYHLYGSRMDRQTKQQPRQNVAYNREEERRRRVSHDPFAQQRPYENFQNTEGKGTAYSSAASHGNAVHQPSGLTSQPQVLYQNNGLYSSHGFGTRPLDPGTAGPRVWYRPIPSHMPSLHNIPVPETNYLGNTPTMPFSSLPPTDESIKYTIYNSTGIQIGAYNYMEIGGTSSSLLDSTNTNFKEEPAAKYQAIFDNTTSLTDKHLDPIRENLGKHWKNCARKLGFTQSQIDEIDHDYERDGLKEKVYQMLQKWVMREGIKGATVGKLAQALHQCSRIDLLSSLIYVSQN
# UniProt Q01974, whole entry: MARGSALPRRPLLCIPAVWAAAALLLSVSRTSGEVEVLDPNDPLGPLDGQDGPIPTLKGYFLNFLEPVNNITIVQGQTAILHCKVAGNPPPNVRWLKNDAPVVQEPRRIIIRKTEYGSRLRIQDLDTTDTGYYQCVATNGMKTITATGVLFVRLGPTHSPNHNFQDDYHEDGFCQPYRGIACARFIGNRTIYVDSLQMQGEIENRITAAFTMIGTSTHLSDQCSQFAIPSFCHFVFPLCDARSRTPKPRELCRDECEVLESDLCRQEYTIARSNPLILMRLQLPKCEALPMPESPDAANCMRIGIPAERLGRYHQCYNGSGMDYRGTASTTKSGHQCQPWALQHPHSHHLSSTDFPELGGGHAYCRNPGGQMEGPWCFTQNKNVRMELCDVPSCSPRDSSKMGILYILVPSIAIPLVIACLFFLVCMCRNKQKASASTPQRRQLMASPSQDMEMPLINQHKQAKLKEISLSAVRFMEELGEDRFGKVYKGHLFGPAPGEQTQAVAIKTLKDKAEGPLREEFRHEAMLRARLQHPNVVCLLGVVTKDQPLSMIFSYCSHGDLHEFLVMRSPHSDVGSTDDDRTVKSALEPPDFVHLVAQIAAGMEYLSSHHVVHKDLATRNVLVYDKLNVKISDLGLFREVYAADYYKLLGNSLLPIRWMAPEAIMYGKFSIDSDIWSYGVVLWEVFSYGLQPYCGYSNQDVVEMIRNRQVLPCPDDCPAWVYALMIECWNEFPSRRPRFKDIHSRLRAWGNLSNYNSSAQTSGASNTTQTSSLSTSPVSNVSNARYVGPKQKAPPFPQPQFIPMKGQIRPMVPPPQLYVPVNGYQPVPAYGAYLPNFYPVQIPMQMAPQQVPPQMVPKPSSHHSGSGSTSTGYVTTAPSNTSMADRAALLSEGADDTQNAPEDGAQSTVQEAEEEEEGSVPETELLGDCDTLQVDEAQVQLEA
# UniProt Q15418, whole entry: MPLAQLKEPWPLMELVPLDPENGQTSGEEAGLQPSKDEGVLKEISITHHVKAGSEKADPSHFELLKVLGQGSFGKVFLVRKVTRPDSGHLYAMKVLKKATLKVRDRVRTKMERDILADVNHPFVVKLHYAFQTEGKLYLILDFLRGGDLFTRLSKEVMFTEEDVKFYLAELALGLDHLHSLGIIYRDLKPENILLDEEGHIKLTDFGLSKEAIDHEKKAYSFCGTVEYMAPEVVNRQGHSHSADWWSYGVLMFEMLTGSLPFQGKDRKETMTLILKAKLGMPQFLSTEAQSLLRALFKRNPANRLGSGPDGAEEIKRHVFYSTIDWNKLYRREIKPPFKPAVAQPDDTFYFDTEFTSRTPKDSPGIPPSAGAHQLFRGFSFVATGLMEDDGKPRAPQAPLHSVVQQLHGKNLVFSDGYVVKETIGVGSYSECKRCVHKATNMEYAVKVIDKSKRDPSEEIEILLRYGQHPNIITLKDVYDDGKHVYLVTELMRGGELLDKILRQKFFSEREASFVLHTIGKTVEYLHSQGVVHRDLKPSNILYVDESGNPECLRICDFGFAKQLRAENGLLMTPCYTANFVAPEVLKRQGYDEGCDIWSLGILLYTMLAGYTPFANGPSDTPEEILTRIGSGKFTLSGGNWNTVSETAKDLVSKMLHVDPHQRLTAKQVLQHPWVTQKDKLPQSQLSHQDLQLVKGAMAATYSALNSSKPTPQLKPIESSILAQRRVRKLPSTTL
# UniProt Q9NYA1, whole entry: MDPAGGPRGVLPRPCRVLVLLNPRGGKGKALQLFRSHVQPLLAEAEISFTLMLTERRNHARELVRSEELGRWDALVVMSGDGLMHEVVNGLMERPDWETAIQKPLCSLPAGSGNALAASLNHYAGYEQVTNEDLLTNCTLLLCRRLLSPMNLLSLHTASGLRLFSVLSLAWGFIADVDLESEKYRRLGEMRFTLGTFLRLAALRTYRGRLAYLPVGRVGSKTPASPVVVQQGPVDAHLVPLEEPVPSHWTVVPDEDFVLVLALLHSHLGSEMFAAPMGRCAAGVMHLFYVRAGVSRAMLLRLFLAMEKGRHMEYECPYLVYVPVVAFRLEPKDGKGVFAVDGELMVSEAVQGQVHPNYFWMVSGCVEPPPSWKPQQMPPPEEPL
# UniProt Q9Y6E0: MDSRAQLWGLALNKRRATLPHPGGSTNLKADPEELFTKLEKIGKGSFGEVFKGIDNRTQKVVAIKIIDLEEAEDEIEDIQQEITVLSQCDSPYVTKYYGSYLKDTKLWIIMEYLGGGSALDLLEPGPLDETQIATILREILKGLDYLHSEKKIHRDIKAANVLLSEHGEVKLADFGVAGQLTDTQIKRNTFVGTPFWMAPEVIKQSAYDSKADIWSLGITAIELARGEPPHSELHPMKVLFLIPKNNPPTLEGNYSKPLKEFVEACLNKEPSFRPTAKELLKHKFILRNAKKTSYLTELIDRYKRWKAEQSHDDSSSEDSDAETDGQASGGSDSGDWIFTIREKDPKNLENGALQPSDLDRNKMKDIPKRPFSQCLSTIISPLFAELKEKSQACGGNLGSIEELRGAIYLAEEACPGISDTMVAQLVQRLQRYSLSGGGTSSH
# UniProt Q15208: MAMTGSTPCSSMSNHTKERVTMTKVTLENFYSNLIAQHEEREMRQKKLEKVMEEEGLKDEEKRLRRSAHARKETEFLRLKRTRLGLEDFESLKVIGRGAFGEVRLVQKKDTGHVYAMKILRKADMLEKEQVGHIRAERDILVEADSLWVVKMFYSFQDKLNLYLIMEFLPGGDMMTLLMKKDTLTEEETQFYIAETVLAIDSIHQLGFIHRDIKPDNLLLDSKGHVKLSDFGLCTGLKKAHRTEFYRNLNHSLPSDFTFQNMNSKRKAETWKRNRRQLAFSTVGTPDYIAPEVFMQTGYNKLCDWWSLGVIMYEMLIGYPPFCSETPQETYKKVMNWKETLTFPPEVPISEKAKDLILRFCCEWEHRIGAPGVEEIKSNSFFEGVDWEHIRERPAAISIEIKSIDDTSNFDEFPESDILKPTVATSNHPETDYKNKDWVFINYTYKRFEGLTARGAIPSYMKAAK
# UniProt Q6PHR2: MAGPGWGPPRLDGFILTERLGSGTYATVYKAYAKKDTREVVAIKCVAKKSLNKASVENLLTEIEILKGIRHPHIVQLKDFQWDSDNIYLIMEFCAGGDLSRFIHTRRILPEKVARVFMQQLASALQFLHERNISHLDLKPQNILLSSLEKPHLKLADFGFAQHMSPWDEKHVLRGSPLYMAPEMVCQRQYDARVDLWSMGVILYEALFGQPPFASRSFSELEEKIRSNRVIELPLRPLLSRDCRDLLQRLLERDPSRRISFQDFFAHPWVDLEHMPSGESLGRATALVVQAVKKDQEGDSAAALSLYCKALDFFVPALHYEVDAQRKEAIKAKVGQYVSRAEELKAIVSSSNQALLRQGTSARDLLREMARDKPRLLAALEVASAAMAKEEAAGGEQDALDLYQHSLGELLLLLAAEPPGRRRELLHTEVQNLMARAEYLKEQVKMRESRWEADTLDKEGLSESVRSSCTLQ
# UniProt P43403: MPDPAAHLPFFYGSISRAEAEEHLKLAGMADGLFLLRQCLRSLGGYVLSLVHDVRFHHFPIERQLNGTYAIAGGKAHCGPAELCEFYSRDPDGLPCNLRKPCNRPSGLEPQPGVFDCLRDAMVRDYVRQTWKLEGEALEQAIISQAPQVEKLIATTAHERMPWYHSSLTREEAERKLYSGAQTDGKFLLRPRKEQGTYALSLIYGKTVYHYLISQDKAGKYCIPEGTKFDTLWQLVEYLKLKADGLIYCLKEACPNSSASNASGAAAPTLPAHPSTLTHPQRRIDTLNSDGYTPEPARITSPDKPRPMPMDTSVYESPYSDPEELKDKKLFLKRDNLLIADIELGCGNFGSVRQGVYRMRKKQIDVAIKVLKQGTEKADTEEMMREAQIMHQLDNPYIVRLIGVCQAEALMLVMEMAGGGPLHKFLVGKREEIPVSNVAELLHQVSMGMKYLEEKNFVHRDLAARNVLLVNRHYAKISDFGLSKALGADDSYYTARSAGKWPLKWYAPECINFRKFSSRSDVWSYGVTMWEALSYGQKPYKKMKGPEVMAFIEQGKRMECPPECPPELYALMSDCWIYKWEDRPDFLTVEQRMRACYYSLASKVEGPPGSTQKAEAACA
# UniProt P00519, whole entry: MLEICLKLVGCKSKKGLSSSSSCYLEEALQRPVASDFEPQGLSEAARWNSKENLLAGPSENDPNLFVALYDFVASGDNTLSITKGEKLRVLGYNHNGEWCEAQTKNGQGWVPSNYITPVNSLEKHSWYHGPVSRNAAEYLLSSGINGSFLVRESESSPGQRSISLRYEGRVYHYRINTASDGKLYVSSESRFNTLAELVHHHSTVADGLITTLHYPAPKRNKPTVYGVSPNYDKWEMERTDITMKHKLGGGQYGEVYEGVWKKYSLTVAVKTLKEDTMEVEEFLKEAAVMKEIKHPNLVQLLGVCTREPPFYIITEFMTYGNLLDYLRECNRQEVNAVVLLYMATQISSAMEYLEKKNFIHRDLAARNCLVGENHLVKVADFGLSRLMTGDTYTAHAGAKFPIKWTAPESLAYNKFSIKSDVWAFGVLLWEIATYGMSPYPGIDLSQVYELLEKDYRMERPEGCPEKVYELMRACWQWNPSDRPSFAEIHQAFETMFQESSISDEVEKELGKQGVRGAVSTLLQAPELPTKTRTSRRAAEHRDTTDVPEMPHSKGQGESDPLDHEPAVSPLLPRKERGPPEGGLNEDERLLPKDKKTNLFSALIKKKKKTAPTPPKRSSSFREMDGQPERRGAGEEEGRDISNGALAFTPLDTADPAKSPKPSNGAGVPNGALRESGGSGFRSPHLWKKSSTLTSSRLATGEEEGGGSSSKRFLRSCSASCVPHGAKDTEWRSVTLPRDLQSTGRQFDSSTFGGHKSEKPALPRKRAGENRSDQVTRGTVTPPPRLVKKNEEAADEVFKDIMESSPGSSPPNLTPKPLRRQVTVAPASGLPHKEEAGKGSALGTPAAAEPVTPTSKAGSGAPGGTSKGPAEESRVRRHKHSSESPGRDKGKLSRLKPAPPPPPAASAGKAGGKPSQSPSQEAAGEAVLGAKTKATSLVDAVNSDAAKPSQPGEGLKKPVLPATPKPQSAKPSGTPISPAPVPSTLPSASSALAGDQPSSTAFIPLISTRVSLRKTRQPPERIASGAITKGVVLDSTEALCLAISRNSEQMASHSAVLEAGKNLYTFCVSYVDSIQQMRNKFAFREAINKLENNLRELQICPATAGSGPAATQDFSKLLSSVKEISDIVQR
# The other results are listed elsewhere or left out. Hit calls seldom repeat between salt and free forms of one compound.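 Kinases, fused to nanoluciferase, were expressed in K562 cells; luminescence was measured every 4 h from 2 to 18 h as percent of control (DMSO = 100%, positive control = 0%). A time point is decreased if signal falls significantly (2 sigma). Hits were called by the authors by a rule that is not shown; the count of time points alone does not decide it.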
# Assays:
# Details in all cases: K562; 2-18 h
# RET = RET (UniProt P07949); experiment: kinase-Nluc reporter destabilization hit call (1 = scored as downregulated) (binary); higher = compound decreases kinase abundance
# [1] = target: RET_M918T (clone: RET_mut) (UniProt P07949); experiment: as above
# RIOK1 = RIOK1 (UniProt Q9BRS2); experiment: as above
# RIPK1 = RIPK1 (UniProt Q13546); experiment: as above
# RIPK2 = RIPK2 (UniProt O43353); experiment: as above
# ROR2 = ROR2 (UniProt Q01974); experiment: as above
# RPS6KA1 = RPS6KA1 (UniProt Q15418); experiment: as above
# SPHK1 = SPHK1 (UniProt Q9NYA1); experiment: as above
# SRC = SRC (UniProt P12931); experiment: as above
# STK24 = STK24 (UniProt Q9Y6E0); experiment: as above
# STK38 = STK38 (UniProt Q15208); experiment: as above
# SYK = SYK (UniProt P43405); experiment: as above
# TEC = TEC (UniProt P42680); experiment: as above
# TYK2 = TYK2 (UniProt P29597); experiment: as above
# ULK3 = ULK3 (UniProt Q6PHR2); experiment: as above
# YES1 = YES1 (UniProt P07947); experiment: as above
# ZAK = ZAK (UniProt Q9NYL2); experiment: as above
# ZAP70 = ZAP70 (UniProt P43403); experiment: as above
# ABL1 = ABL1 (UniProt P00519); experiment: number of time points (of 5) at which kinase-Nluc abundance scored as decreased, DMSO-normalised (count); higher = more persistent destabilization
# AKT1 = AKT1 (UniProt P31749); experiment: as above
Compound,kinase-Nluc reporter destabilization hit call (RET),kinase-Nluc reporter destabilization hit call [1],kinase-Nluc reporter destabilization hit call (RIOK1),kinase-Nluc reporter destabilization hit call (RIPK1),kinase-Nluc reporter destabilization hit call (RIPK2),kinase-Nluc reporter destabilization hit call (ROR2),kinase-Nluc reporter destabilization hit call (RPS6KA1),kinase-Nluc reporter destabilization hit call (SPHK1),kinase-Nluc reporter destabilization hit call (SRC),kinase-Nluc reporter destabilization hit call (STK24),kinase-Nluc reporter destabilization hit call (STK38),kinase-Nluc reporter destabilization hit call (SYK),kinase-Nluc reporter destabilization hit call (TEC),kinase-Nluc reporter destabilization hit call (TYK2),kinase-Nluc reporter destabilization hit call (ULK3),kinase-Nluc reporter destabilization hit call (YES1),kinase-Nluc reporter destabilization hit call (ZAK),kinase-Nluc reporter destabilization hit call (ZAP70),number of time points (ABL1),number of time points (AKT1)
NC(=O)c1ccc2nc(-c3ccc(Oc4ccc(Cl)cc4)cc3)[nH]c2c1 (10 µM),inactive: 0,inactive: 0,inactive: 0,inactive: 0,inactive: 0,inactive: 0,inactive: 0,inactive: 0,inactive: 0,inactive: 0,inactive: 0,inactive: 0,inactive: 0,inactive: 0,inactive: 0,inactive: 0,inactive: 0,inactive: 0,0,0
COc1ccc2c(C(=O)Nc3ccc(NC(=O)c4nn(C5CCN(C(=O)CC(C)(C)C#N)CC5)c5ccc(F)cc45)cc3Cl)cnn2c1 [Src Inhibitor 3] (2.5 µM),inactive: 0,inactive: 0,inactive: 0,inactive: 0,inactive: 0,inactive: 0,inactive: 0,inactive: 0,inactive: 0,inactive: 0,inactive: 0,inactive: 0,inactive: 0,inactive: 0,inactive: 0,inactive: 0,inactive: 0,inactive: 0,3,0
Cc1ncc(-c2ccnc(Nc3ccc(S(C)(=O)=O)cc3)n2)n1C(C)C (2.5 µM),inactive: 0,inactive: 0,inactive: 0,inactive: 0,inactive: 0,inactive: 0,inactive: 0,inactive: 0,inactive: 0,inactive: 0,inactive: 0,inactive: 0,inactive: 0,inactive: 0,inactive: 0,inactive: 0,inactive: 0,inactive: 0,0,0
FC(F)(F)c1ccc(CNc2ccc(Cc3c[nH]c4ncc(Cl)cc34)cn2)cc1 (10 µM),inactive: 0,inactive: 0,inactive: 0,inactive: 0,inactive: 0,inactive: 0,inactive: 0,inactive: 0,inactive: 0,inactive: 0,inactive: 0,inactive: 0,inactive: 0,inactive: 0,inactive: 0,inactive: 0,inactive: 0,inactive: 0,0,0
C/C=C(/C)C(=O)O[C@H]1Cc2cc3ccc(=O)oc3cc2OC1(C)C [Decursinol angelate] (10 µM),inactive: 0,inactive: 0,inactive: 0,inactive: 0,inactive: 0,inactive: 0,inactive: 0,inactive: 0,inactive: 0,inactive: 0,inactive: 0,inactive: 0,inactive: 0,inactive: 0,inactive: 0,inactive: 0,inactive: 0,inactive: 0,0,0
CCN(CC)CCCCNc1ncc2cc(-c3c(Cl)cccc3Cl)c(NC(=O)NC(C)(C)C)nc2n1 (2.5 µM),inactive: 0,inactive: 0,inactive: 0,inactive: 0,inactive: 0,inactive: 0,inactive: 0,inactive: 0,inactive: 0,inactive: 0,inactive: 0,inactive: 0,inactive: 0,inactive: 0,inactive: 0,inactive: 0,inactive: 0,inactive: 0,2,0
COc1c(Cl)cc2c([nH]c3cnccc32)c1NC(=O)c1cccnc1C (10 µM),inactive: 0,inactive: 0,inactive: 0,inactive: 0,inactive: 0,inactive: 0,inactive: 0,inactive: 0,inactive: 0,inactive: 0,inactive: 0,inactive: 0,inactive: 0,inactive: 0,inactive: 0,inactive: 0,inactive: 0,inactive: 0,0,0
COc1ccc(COc2ccc(Cc3cnc(N)nc3N)cc2OC)cc1 (10 µM),inactive: 0,inactive: 0,inactive: 0,inactive: 0,inactive: 0,inactive: 0,inactive: 0,inactive: 0,inactive: 0,inactive: 0,inactive: 0,inactive: 0,inactive: 0,inactive: 0,inactive: 0,inactive: 0,inactive: 0,inactive: 0,0,0
Nc1ncnc2c1c(-c1ccc(Oc3ccccc3)cc1)cn2C1CCCC1 (2.5 µM),inactive: 0,inactive: 0,inactive: 0,inactive: 0,inactive: 0,inactive: 0,inactive: 0,inactive: 0,inactive: 0,inactive: 0,inactive: 0,inactive: 0,inactive: 0,inactive: 0,inactive: 0,inactive: 0,inactive: 0,inactive: 0,0,0
CCOc1cc2ncc(C#N)c(Nc3ccc(OCc4ccccn4)c(Cl)c3)c2cc1NC(=O)/C=C/CN(C)C [Neratinib] (10 µM),inactive: 0,inactive: 0,inactive: 0,inactive: 0,inactive: 0,inactive: 0,inactive: 0,inactive: 0,inactive: 0,inactive: 0,inactive: 0,inactive: 0,inactive: 0,inactive: 0,inactive: 0,inactive: 0,inactive: 0,inactive: 0,1,0
CC(C)(C)c1nc2c3cc[nH]c(=O)c3c3cc(F)ccc3c2[nH]1 [Pyridone 6] (10 µM),inactive: 0,inactive: 0,inactive: 0,inactive: 0,inactive: 0,inactive: 0,inactive: 0,inactive: 0,inactive: 0,inactive: 0,inactive: 0,inactive: 0,inactive: 0,inactive: 0,inactive: 0,inactive: 0,inactive: 0,inactive: 0,0,0
CCC(=O)N1CCN(c2ccc(-n3c(=O)ccc4cnc5ccc(-c6cnc7ccccc7c6)cc5c43)cc2C(F)(F)F)CC1 [Torin 1] (2 µM),inactive: 0,inactive: 0,inactive: 0,inactive: 0,inactive: 0,inactive: 0,inactive: 0,inactive: 0,inactive: 0,inactive: 0,inactive: 0,inactive: 0,inactive: 0,inactive: 0,inactive: 0,inactive: 0,inactive: 0,inactive: 0,5,0
COc1cc2ncnc(Nc3cccc(O)c3)c2cc1OC (10 µM),inactive: 0,inactive: 0,inactive: 0,inactive: 0,active: 1,inactive: 0,inactive: 0,inactive: 0,inactive: 0,inactive: 0,inactive: 0,inactive: 0,inactive: 0,inactive: 0,inactive: 0,inactive: 0,inactive: 0,inactive: 0,4,0
O=C(NOC[C@H](O)CO)c1ccc(F)c(F)c1Nc1ccc(I)cc1F (2.5 µM),inactive: 0,inactive: 0,inactive: 0,inactive: 0,inactive: 0,inactive: 0,inactive: 0,inactive: 0,inactive: 0,inactive: 0,inactive: 0,inactive: 0,inactive: 0,inactive: 0,inactive: 0,inactive: 0,inactive: 0,inactive: 0,2,0
C=CC(=O)N1CC[C@H](n2nc(C#Cc3cc(OC)cc(OC)c3)c3c(N)ncnc32)C1 [Futibatinib] (10 µM),inactive: 0,inactive: 0,inactive: 0,inactive: 0,inactive: 0,inactive: 0,inactive: 0,inactive: 0,inactive: 0,inactive: 0,inactive: 0,inactive: 0,inactive: 0,inactive: 0,inactive: 0,inactive: 0,inactive: 0,inactive: 0,0,0
COc1cc2ncnc(Nc3ccc(O)cc3)c2cc1OC (10 µM),inactive: 0,inactive: 0,inactive: 0,inactive: 0,inactive: 0,inactive: 0,inactive: 0,inactive: 0,inactive: 0,inactive: 0,inactive: 0,inactive: 0,inactive: 0,inactive: 0,inactive: 0,inactive: 0,inactive: 0,inactive: 0,0,0
Oc1cc(O)cc(/C=C/c2ccc(O)c(O)c2)c1 [Piceatannol] (10 µM),inactive: 0,inactive: 0,inactive: 0,inactive: 0,active: 1,inactive: 0,inactive: 0,inactive: 0,inactive: 0,inactive: 0,inactive: 0,inactive: 0,inactive: 0,inactive: 0,inactive: 0,inactive: 0,inactive: 0,inactive: 0,3,0
COc1c(CC=C(C)C)c(O)cc2oc(=O)c(-c3ccc(O)cc3O)cc12 [Glycycoumarin] (10 µM),inactive: 0,inactive: 0,inactive: 0,inactive: 0,inactive: 0,inactive: 0,inactive: 0,inactive: 0,inactive: 0,inactive: 0,inactive: 0,inactive: 0,inactive: 0,inactive: 0,inactive: 0,inactive: 0,inactive: 0,inactive: 0,0,0
CN(C)Cc1ccc(-c2cnn3c(-c4cccc(NC(=O)c5cccc(C(F)(F)F)c5)c4)ccnc23)cc1 (2.5 µM),inactive: 0,inactive: 0,inactive: 0,inactive: 0,inactive: 0,inactive: 0,inactive: 0,inactive: 0,inactive: 0,inactive: 0,inactive: 0,inactive: 0,inactive: 0,inactive: 0,inactive: 0,inactive: 0,inactive: 0,inactive: 0,0,0

# Taken from above:
# C=CC(=O)N1CC[C@H](n2nc(C#Cc3cc(OC)cc(OC)c3)c3c(N)ncnc32)C1 [Futibatinib] (10 µM) – kinase-Nluc reporter destabilization hit call (ZAK): inactive: 0
# O=C(NOC[C@H](O)CO)c1ccc(F)c(F)c1Nc1ccc(I)cc1F (2.5 µM) – kinase-Nluc reporter destabilization hit call (SRC): inactive: 0
